Laboratory results taken from PMC9005695.
These are yes or no findings as the source states them, for the method shown. Where a sequence is shown, tags or fusion partners need not be part of it.

Molecular target: T1, GST-Pdr3 (S. cerevisiae) (UniProt P33200)
T1 sequence: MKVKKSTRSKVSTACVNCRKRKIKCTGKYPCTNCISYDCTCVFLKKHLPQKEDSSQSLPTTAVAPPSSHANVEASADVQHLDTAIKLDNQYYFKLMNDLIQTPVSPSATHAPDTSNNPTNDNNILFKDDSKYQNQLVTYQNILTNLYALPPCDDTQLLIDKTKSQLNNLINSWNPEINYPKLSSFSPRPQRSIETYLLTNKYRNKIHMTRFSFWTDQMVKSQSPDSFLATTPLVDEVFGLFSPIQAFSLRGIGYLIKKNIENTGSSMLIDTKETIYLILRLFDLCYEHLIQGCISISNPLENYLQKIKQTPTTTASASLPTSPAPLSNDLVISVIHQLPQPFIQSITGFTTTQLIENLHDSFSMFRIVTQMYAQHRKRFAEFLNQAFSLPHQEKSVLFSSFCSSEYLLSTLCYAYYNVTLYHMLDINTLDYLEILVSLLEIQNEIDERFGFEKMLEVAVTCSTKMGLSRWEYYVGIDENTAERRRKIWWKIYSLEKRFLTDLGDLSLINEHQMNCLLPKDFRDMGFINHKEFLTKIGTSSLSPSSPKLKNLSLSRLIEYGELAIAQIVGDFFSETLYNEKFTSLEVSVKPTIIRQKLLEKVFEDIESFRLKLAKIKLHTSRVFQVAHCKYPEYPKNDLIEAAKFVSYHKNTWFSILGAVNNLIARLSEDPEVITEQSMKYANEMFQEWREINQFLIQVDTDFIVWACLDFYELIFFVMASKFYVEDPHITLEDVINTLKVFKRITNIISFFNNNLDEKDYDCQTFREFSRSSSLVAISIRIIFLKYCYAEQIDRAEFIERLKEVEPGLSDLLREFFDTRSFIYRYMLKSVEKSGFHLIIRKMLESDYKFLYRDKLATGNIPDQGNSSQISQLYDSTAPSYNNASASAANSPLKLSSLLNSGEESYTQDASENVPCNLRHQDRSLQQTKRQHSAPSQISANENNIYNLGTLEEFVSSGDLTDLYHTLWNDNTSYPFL
Assay: pull-down; GST fusions bound to glutathione-Sepharose beads incubated with purified SWI/SNF or purified His-Rtt106; Binding buffer (PBS, 0.1% Triton X-100, 1 mM MgCl2, 1 mM DTT, 10% glycerol), 4 °C, 2 h; western blot with anti-FLAG (Snf6-3FLAG) or anti-His; both purified

- binding: no binding
B1: His-Rtt106 (protein, UniProt P40161 1-455)
chain: MSKLFLDELPESLSRKIGTVVRVLPSSLEIFEELYKYALNENSNDRSGRHKKPRIDVSSDLLKTDEISETNTIFKLEGVSVLSPLRKKLDLVFYLSNVDGSPVITLLKGNDRELSIYQLNKNIKMASFLPVPEKPNLIYLFMTYTSCEDNKFSEPVVMTLNKENTLNQFKNLGLLDSNVTDFEKCVEYIRKQAILTGFKISNPFVNSTLVDTDAEKINSFHLQCHRGTKEGTLYFLPDHIIFGFKKPILLFDASDIESITYSSITRLTFNASLVTKDGEKYEFSMIDQTEYAKIDDYVKRKQMKDKSMSEELKAKSKSKGQATDGTADQPSILQEATRQMQDEKKAGVFSDDDEENDQNFEAESDLSDGSGQESSDGAEDGEEAEEDDEEDDEEEDKKGQSALNRDNSFASINGQPEQELQYKEFKEPLELEDIPIEIDNDDDEDDEDGSGVEYD
